Counter-ions that a name gives are not always drawn.
Assay: Odor threshold and odor value of perfuming compounds (Tables 4 to 10)
Conditions: Table 6, perfuming compounds having a fruity note

Q: With `CC(OC=O)C1CCCC(C)(C)C1` (stereo not shown) as the compound, how does the “Odor Threshold” value read?
A: 2.05E−01 μg/l air

Q: Which “Odor Threshold” value does the source give for `C=CC(C)=CCC=C(C)C` here?
A: 2.57E−02 μg/l air

Q: Which “Odor Threshold” value does the source give for `C=CC(=C)CCC=C(C)C` here?
A: 4.12E−02 μg/l air

Q: For `CCOC(=O)C1=C(C)C=CCC1(C)C`, which “Odor Threshold” value is on record?
A: 4.40E−03 μg/l air

Q: For `CCOC(=O)CC(C)=O`, which “Odor Threshold” value is on record?
A: 5.83E−02 μg/l air

Q: With `CCCOC(=O)[C@H](C)OC(C)(C)CC` as the compound, how does the “Odor Threshold” value read?
A: 4.98E−01 μg/l air

Q: For `CCCCCC1(C)CCC(C)(C)C1=O` (racemic), which “Odor Threshold” value is on record?
A: 3.25E−02 μg/l air

Q: For `CC1CC(C)(c2ccccc2)CO1` (racemic), which “Odor Threshold” value is on record?
A: 5.04E−04 μg/l air

Q: Which “Odor Threshold” value does the source give for `CC(C)=CCCC(C)C=O` (racemic) here?
A: 2.11E−04 μg/l air

Q: Which “Odor Threshold” value does the source give for `C=CC(C)CC(=O)CC(C)C` (racemic) here?
A: 2.78E−01 μg/l air

Q: Which “Odor Threshold” value does the source give for `C=C(C)CC(C)OC(=O)C(C)C` (racemic) here?
A: 2.26E−01 μg/l air

Q: For `C=C1CCCC(C)(C)C1C(=O)/C=C/C` (racemic), which “Odor Threshold” value is on record?
A: 3.73E−03 μg/l air

Q: With `C=C(C)CC(C(C)=O)C(=O)OCC` (racemic) as the compound, how does the “Odor Threshold” value read?
A: 3.64E−03 μg/l air

Q: For `C=C1CCCC(C)(C)C1C(=O)OC` (racemic), which “Odor Threshold” value is on record?
A: 5.78E−04 μg/l air

Q: Which “Odor Threshold” value does the source give for `C=CC(C)(CCC=C(C)C)OC(C)=O` (racemic) [(+−)-1,5-DIMETHYL-1-VINYL-4-HEXENYL ACETATE] here?
A: 7.40E−02 μg/l air

Q: Which “Odor Threshold” value does the source give for `C=CC(CCCCC)OC(C)=O` (racemic) [(+−)-1-PENTYL-2-PROPENYL ACETATE] here?
A: 4.84E−02 μg/l air

Q: For `CC(=O)OC(C)c1ccccc1` (racemic) [(+−)-1-PHENYLETHYL ACETATE], which “Odor Threshold” value is on record?
A: 4.43E−02 μg/l air

Q: Which “Odor Threshold” value does the source give for `CCCCCC1CCCC1=O` (racemic) [(+−)-2-pentylcyclopentanone] here?
A: 1.28E−03 μg/l air

Q: Which “Odor Threshold” value does the source give for `CCCCCC(C#N)CCC` (racemic) [(+−)-2-propylheptanenitrile] here?
A: 7.83E−02 μg/l air

Q: With `CC(C)=CCCC(C)CCOC=O` (racemic) [(+−)-3,7-DIMETHYL-6-OCTENYL FORMATE] as the compound, how does the “Odor Threshold” value read?
A: 1.72E−03 μg/l air

Q: With `C=CC(C)(O)CCC=C(C)C` (racemic) [(+−)-3,7-dimethyl-1,6-octadien-3-ol] as the compound, how does the “Odor Threshold” value read?
A: 8.89E−05 μg/l air

Q: With `CCCC(S)CCOC(C)=O` (racemic) [(+−)-3-mercaptohexyl acetate] as the compound, how does the “Odor Threshold” value read?
A: 2.72E−06 μg/l air

Q: With `COCC(C)Cc1ccccc1` (racemic) [(+−)-(3-methoxy-2-methylpropyl)benzene] as the compound, how does the “Odor Threshold” value read?
A: 1.51E−02 μg/l air

Q: Which “Odor Threshold” value does the source give for `CC/C=C\CCOC(=O)C(C)CC` (racemic) [(+−)-(Z)-3-HEXENYL 2-METHYLBUTANOATE] here?
A: 1.96E−02 μg/l air

Q: With `CCCC(C)C(=O)OCC` (racemic) [(+−)-ETHYL 2-METHYLPENTANOATE] as the compound, how does the “Odor Threshold” value read?
A: 3.84E−05 μg/l air

Q: For `CCC(C)C(=O)OC(C)C` (racemic) [(+−)-ISOPROPYL 2-METHYLBUTANOATE], which “Odor Threshold” value is on record?
A: 8.42E−03 μg/l air

Q: For `CCOC(=O)C(C)CC` (racemic) [(+−)-ethyl 2-methylbutanoate], which “Odor Threshold” value is on record?
A: 1.26E−04 μg/l air

Q: With `CCCCC(CC)C(=O)OC` (racemic) [(+−)-methyl 2-ethylhexanoate] as the compound, how does the “Odor Threshold” value read?
A: 1.74E−01 μg/l air

Q: For `CC1(C)C2CC[C@@]1(C)C(=O)C2` (single isomer, unassigned; (+)), which “Odor Threshold” value is on record?
A: 1.72E−01 μg/l air

Q: For `C=C(C)C1CC=C(C)CC1` (single isomer, unassigned; (+)) [(+)-LIMONENE], which “Odor Threshold” value is on record?
A: 1.29E−01 μg/l air

Q: Which “Odor Threshold” value does the source give for `CC(=O)OC(C)(C)Cc1ccccc1` [1,1-DIMETHYL-2-PHENYLETHYL ACETATE] here?
A: 5.16E−02 μg/l air

Q: For `CC(=O)OC(CC(C)C)CC(C)C` [1-ISOBUTYL-3-METHYLBUTYL ACETATE], which “Odor Threshold” value is on record?
A: 1.62E+00 μg/l air

Q: For `CCCc1ccc(OC)cc1` [1-METHOXY-4-PROPYLBENZENE], which “Odor Threshold” value is on record?
A: 5.37E−04 μg/l air

Q: Which “Odor Threshold” value does the source give for `CC(O)c1ccccc1` (stereo not shown) [1-PHENYL-1-ETHANOL] here?
A: 2.98E−01 μg/l air

Q: Which “Odor Threshold” value does the source give for `C/C=C/c1ccc(OC)cc1` [1-methoxy-4-[(1E)-1-propen-1-yl]benzene] here?
A: 1.23E−03 μg/l air

Q: Which “Odor Threshold” value does the source give for `CC(=O)OCCC1CCCCC1` [2-CYCLOHEXYL ETHYL ACETATE] here?
A: 4.49E−02 μg/l air

Q: Which “Odor Threshold” value does the source give for `CCCCCC(C)=O` [2-HEPTANONE] here?
A: 5.85E−02 μg/l air

Q: For `CCCC(C)COC(=O)C(C)CCC` (stereo not shown) [2-METHYLPENTYL 2-METHYLPENTANOATE], which “Odor Threshold” value is on record?
A: 2.41E−01 μg/l air

Q: With `CCCCCCC(C)=O` [2-OCTANONE] as the compound, how does the “Odor Threshold” value read?
A: 5.37E−02 μg/l air

Q: With `OCCc1ccccc1` [2-PHENYLETHANOL] as the compound, how does the “Odor Threshold” value read?
A: 1.02E−04 μg/l air

Q: Which “Odor Threshold” value does the source give for `CC(=O)OCCc1ccccc1` [2-PHENYLETHYL ACETATE] here?
A: 2.14E−03 μg/l air

Q: Which “Odor Threshold” value does the source give for `O=COCCc1ccccc1` [2-PHENYLETHYL FORMATE] here?
A: 8.34E−04 μg/l air

Q: With `CC(=O)OCCC(C)CC(C)(C)C` (stereo not shown) [3,5,5-TRIMETHYLHEXYL ACETATE] as the compound, how does the “Odor Threshold” value read?
A: 1.28E+00 μg/l air

Q: With `CC(C)(C)Cc1cccnc1` [3-(2,2-DIMETHYLPROPYL)PYRIDINE] as the compound, how does the “Odor Threshold” value read?
A: 2.82E−03 μg/l air

Q: Which “Odor Threshold” value does the source give for `CC(C)CC(=O)O` [3-METHYLBUTANOIC ACID] here?
A: 2.23E−04 μg/l air

Q: With `CCCCCC(=O)CC` [3-OCTANONE] as the compound, how does the “Odor Threshold” value read?
A: 4.53E−02 μg/l air

Q: Which “Odor Threshold” value does the source give for `CC(=O)OCC=C(C)C` [3-methyl-2-buten-1-yl acetate] here?
A: 5.58E−02 μg/l air

Q: Which “Odor Threshold” value does the source give for `Cc1ccc(OC(=O)C(C)C)cc1` [4-METHYLPHENYL ISOBUTYRATE] here?
A: 1.66E−05 μg/l air

Q: With `CC(=O)CCc1ccccc1` [4-PHENYL-2-BUTANONE] as the compound, how does the “Odor Threshold” value read?
A: 2.22E−04 μg/l air

Q: With `CCC(=O)CC(C)CC` (stereo not shown) [5-METHYL-3-HEPTANONE] as the compound, how does the “Odor Threshold” value read?
A: 9.87E−02 μg/l air

Q: Which “Odor Threshold” value does the source give for `CC(=O)CCC=C(C)C` [6-METHYL-5-HEPTEN-2-ONE] here?
A: 1.06E−01 μg/l air

Q: With `C[C@@H]1CC[C@@H](C(C)(C)S)C(=O)C1` [(1R,4R)-8-MERCAPTO-3-P-MENTHANONE] as the compound, how does the “Odor Threshold” value read?
A: 3.43E−05 μg/l air

Q: With `CCC/C=C/C=O` [(2E)-2-HEXENAL] as the compound, how does the “Odor Threshold” value read?
A: 2.53E−03 μg/l air

Q: Which “Odor Threshold” value does the source give for `CC/C=C\CCOC(=O)C/C=C\CC` [(3Z)-3-hexen-1-yl (3Z)-3-hexenoate] here?
A: 5.17E−02 μg/l air

Q: For `CC/C=C\CCOC(=O)CCC` [(3Z)-3-hexen-1-yl butyrate], which “Odor Threshold” value is on record?
A: 7.85E−02 μg/l air

Q: With `CC/C=C\CCOC(=O)OC` [(3Z)-hex-3-en-1-yl methyl carbonate] as the compound, how does the “Odor Threshold” value read?
A: 4.58E−02 μg/l air

Q: For `CCC/C=C/COC(C)=O` [(E)-2-HEXENYL ACETATE], which “Odor Threshold” value is on record?
A: 2.08E−01 μg/l air

Q: Which “Odor Threshold” value does the source give for `CC/C=C\CCOC=O` [(Z)-3-HEXENYL FORMATE] here?
A: 2.11E−03 μg/l air

Q: For `CC/C=C\CCOC(=O)C(C)C` [(Z)-3-HEXENYL ISOBUTYRATE], which “Odor Threshold” value is on record?
A: 4.54E−02 μg/l air

Q: Which “Odor Threshold” value does the source give for `C=CCOC(=O)CCCCCC` [ALLYL HEPTANOATE] here?
A: 1.75E−02 μg/l air

Q: Which “Odor Threshold” value does the source give for `C=CCOC(=O)CCCCC` [ALLYL HEXANOATE] here?
A: 4.58E−02 μg/l air

Q: For `CCCCOC(C)=O` [BUTYL ACETATE], which “Odor Threshold” value is on record?
A: 4.18E−01 μg/l air

Q: With `CCOC(=O)CC1(C)OCCO1` [ETHYL 2-METHYL-1,3-DIOXOLANE-2-ACETATE] as the compound, how does the “Odor Threshold” value read?
A: 1.62E−03 μg/l air

Q: For `CCCC(=O)OCC` [ETHYL BUTANOATE], which “Odor Threshold” value is on record?
A: 3.68E−04 μg/l air

Q: With `CCCCCC(=O)OCC` [ETHYL HEXANOATE] as the compound, how does the “Odor Threshold” value read?
A: 9.11E−04 μg/l air

Q: With `CCOC(=O)C(C)C` [ETHYL ISOBUTYRATE] as the compound, how does the “Odor Threshold” value read?
A: 1.14E−04 μg/l air

Q: Which “Odor Threshold” value does the source give for `CCOC(=O)Cc1ccccc1` [ETHYL PHENYLACETATE] here?
A: 4.19E−04 μg/l air

Q: With `CCCCCCOC(C)=O` [HEXYL ACETATE] as the compound, how does the “Odor Threshold” value read?
A: 1.32E−01 μg/l air

Q: Which “Odor Threshold” value does the source give for `CCCCCC(=O)OC` [METHYL HEXANOATE] here?
A: 8.43E−02 μg/l air

Q: Which “Odor Threshold” value does the source give for `COC(=O)Cc1ccccc1` [METHYL PHENYLACETATE] here?
A: 3.21E−04 μg/l air

Q: With `CC(=O)OCc1ccccc1` [benzyl acetate] as the compound, how does the “Odor Threshold” value read?
A: 5.24E−03 μg/l air

Q: Which “Odor Threshold” value does the source give for `CCOC(=O)/C(C)=C/C(C)C` [ethyl (2E)-2,4-dimethyl-2-pentenoate] here?
A: 9.55E−03 μg/l air

Q: Which “Odor Threshold” value does the source give for `CCCCCCC(=O)OCC` [ethyl heptanoate] here?
A: 7.17E−03 μg/l air

Q: Which “Odor Threshold” value does the source give for `CCCCCCCOC(C)=O` [heptyl acetate] here?
A: 1.32E−01 μg/l air

Q: For `CCCCCCOC(=O)C(C)C` [hexyl 2-methylpropanoate], which “Odor Threshold” value is on record?
A: 7.15E−01 μg/l air

Q: With `C/C=C(\C)C(=O)OCCCCCC` [hexyl (2E)-2-methyl-2-butenoate] as the compound, how does the “Odor Threshold” value read?
A: 1.16E−02 μg/l air

Q: With `CCCCCC/C=C/C(=O)OC` [methyl (2E)-2-nonenoate] as the compound, how does the “Odor Threshold” value read?
A: 5.84E−02 μg/l air

Q: For `COC(=O)C=C1CCCC1` [methyl cyclopentylideneacetate], which “Odor Threshold” value is on record?
A: 2.80E−02 μg/l air

Q: With `CCCCCCCCOC(C)=O` [octyl acetate] as the compound, how does the “Odor Threshold” value read?
A: 1.76E−01 μg/l air

Source: patent US20240301319A1, “PERFUMING COMPOSITIONS” (FIRMNICH SA, priority 2017, published 2024)
